Patent publication US4968669A, “Parathyroid hormone antagonists” (Merck & Co., Inc., priority 1989, dated 1990)

Assays:
[1] = molecular target: T1, PTH receptor in bovine renal cortical plasma membranes (Bos taurus, UniProt Q1LZF7); test: PTH binding assay, bovine renal cortical plasma membranes, radioligand [Nle8,18,125I-Tyr34]bPTH(1-34)NH2; details: 30 min at 21° C
T1 construct: from tissue; host or cells: bovine renal cortex, plasma membranes
T1 sequence (Q1LZF7 29-589): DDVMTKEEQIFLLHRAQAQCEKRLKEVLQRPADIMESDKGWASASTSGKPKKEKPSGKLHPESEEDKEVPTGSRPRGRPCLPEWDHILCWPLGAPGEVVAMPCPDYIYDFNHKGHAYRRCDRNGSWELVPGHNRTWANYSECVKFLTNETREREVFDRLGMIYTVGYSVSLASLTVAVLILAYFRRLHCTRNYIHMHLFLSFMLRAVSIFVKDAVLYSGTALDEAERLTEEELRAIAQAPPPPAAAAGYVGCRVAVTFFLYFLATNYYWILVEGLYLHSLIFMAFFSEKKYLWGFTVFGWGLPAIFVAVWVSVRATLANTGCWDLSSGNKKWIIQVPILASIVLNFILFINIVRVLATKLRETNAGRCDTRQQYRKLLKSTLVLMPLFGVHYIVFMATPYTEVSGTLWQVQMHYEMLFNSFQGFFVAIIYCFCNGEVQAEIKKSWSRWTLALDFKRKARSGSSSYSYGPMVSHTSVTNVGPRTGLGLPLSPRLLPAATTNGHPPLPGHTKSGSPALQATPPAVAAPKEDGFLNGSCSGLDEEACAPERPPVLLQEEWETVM
Procedure: Bovine renal cortical plasma membranes were incubated with radioligand (25,000 cpm) in the absence or presence of PTH analogues in a Tris containing buffer (250 μl) for 30 min. at 21° C. Once equilibrium was reached, bound and free radioligand were separated by centrifugation.

[2] = molecular target: T2, I^125 -labeled PTH binding to rat osteosarcoma cell line ROS 17/2.8 (Rattus norvegicus, UniProt P25961); test: PTH binding assay, ROS 17/2.8 cells
T2 construct: bone-derived rat osteosarcoma cell line ROS 17/2.8; endogenous in cells; host or cells: ROS 17/2.8 rat osteosarcoma cells
T2 sequence (P25961 27-591): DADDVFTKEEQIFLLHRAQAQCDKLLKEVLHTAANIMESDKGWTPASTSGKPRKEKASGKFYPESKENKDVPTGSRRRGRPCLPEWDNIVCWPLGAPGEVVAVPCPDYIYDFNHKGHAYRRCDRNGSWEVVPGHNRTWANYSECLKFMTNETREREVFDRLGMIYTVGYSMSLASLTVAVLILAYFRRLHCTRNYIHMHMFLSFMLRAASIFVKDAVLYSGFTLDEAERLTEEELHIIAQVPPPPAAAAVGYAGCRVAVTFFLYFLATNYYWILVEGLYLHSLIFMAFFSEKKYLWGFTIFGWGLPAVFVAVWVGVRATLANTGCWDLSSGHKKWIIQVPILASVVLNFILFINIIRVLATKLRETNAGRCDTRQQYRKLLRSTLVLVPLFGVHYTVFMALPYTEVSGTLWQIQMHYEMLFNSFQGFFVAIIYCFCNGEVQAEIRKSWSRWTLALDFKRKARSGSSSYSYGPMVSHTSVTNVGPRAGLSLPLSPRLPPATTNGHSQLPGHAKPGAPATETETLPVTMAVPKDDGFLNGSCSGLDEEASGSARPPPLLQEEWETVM

| Compound | Ki [1] [µM] | Ki [2] [µM] |
| --- | --- | --- |
| CCCC[C@H](NC(=O)[C@H](CO)NC(=O)[C@H](CO)NC(=O)[C@H](CC(C)C)NC(=O)[C@H](Cc1c[nH]cn1)NC(=O)[C@H](CCCCN)NC(=O)[C@@H](Cc1c[nH]c2ccccc12)NC(=O)[C@H](CC(C)C)NC(=O)[C@H](CC(N)=O)NC(=O)[C@H](Cc1c[nH]cn1)NC(=O)[C@H](CCCC)NC(=O)[C@@H](N)Cc1ccccc1)C(=O)N[C@@H](CCC(=O)O)C(=O)N[C@@H](CCCNC(=N)N)C(=O)N[C@H](C(=O)N[C@@H](CCC(=O)O)C(=O)N[C@@H](Cc1c[nH]c2ccccc12)C(=O)N[C@@H](CC(C)C)C(=O)N[C@@H](CCCNC(=N)N)C(=O)N[C@@H](CCCCN)C(=O)N[C@@H](CCCCN)C(=O)N[C@@H](CC(C)C)C(=O)N[C@@H](CCC(N)=O)C(=O)N[C@@H](CC(=O)O)C(=O)N[C@H](C(=O)N[C@@H](Cc1c[nH]cn1)C(=O)N[C@@H](CC(N)=O)C(=O)N[C@@H](Cc1ccc(O)cc1)C(N)=O)C(C)C)C(C)C [[D-Trp^12,Nle^8,18, Tyr^34]bPTH(7-34)NH2] | 0.013 ± 0.003 | 0.182 ± 0.032 |
| CCCC[C@H](NC(=O)[C@H](CO)NC(=O)[C@H](CO)NC(=O)[C@H](CC(C)C)NC(=O)[C@H](Cc1c[nH]cn1)NC(=O)[C@H](CCCCN)NC(=O)[C@H](Cc1c[nH]c2ccccc12)NC(=O)[C@H](CC(C)C)NC(=O)[C@H](CC(N)=O)NC(=O)[C@H](Cc1c[nH]cn1)NC(=O)[C@H](CCCC)NC(=O)[C@@H](N)Cc1ccccc1)C(=O)N[C@@H](CCC(=O)O)C(=O)N[C@@H](CCCNC(=N)N)C(=O)N[C@H](C(=O)N[C@@H](CCC(=O)O)C(=O)N[C@@H](Cc1c[nH]c2ccccc12)C(=O)N[C@@H](CC(C)C)C(=O)N[C@@H](CCCNC(=N)N)C(=O)N[C@@H](CCCCN)C(=O)N[C@@H](CCCCN)C(=O)N[C@@H](CC(C)C)C(=O)N[C@@H](CCC(N)=O)C(=O)N[C@@H](CC(=O)O)C(=O)N[C@H](C(=O)N[C@@H](Cc1c[nH]cn1)C(=O)N[C@@H](CC(N)=O)C(=O)N[C@@H](Cc1ccc(O)cc1)C(N)=O)C(C)C)C(C)C [[Nle^8,18,Trp^12,Tyr^34]bPTH(7-34)NH2, [L-Trp^12,Nle^8,18,Tyr^34]bPTH(7-34)NH2] | 0.051 ± 0.003 | – |
